{"sequences": {"note": "Protein sequences, listed by entry. Tags and fused reporters are not part of them.", "UniProt P08047": "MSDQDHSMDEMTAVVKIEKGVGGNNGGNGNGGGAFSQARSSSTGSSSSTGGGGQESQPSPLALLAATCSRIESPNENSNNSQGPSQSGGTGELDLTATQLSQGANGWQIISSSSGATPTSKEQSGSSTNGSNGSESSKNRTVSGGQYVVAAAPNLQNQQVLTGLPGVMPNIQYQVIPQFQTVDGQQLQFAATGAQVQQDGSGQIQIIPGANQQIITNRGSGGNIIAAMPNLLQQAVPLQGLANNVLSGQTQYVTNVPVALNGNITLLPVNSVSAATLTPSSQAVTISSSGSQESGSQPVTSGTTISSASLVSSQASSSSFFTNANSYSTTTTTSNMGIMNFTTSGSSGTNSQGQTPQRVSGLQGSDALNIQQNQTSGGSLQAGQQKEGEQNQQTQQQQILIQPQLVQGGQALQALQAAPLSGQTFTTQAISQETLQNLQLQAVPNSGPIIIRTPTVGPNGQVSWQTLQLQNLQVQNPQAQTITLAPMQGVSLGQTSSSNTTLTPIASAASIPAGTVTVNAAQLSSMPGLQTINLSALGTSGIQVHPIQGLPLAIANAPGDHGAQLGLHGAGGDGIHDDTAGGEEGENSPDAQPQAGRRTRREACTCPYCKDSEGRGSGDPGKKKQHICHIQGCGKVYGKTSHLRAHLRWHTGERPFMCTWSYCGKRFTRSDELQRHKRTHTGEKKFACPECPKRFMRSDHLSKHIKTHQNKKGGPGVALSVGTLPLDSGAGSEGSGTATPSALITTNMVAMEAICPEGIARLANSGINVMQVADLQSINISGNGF"}, "source": "paper PMC11718245", "target": "FGR (human (endogenous in LoVo)) (UniProt P09769)", "assay": "affinity purification with mass spectrometry; FGR co-immunoprecipitation paired with mass spectrometry; cells not named for this experiment", "note": "Results are given in words; binding and its absence hold for the method and conditions named. In cells and extracts the contact can be indirect. These calls come from enrichment with a bait or labelling near it, and not all partners need be listed.", "data": [{"substance": "SP1 (from UniProt P08047 1-785)", "values": [{"measurement": "binding", "result": "binds"}]}]}
